Reference: US9090669B2, “Short fatty acid tail polymyxin derivatives and uses thereof” (priority 2008, dated 2015)
“And” between values parts separate entries of the source, which are not always exact repeats. Equal entries are not always repeated. Part of at least one peptide drawing is inferred or uncertain, most often the ends. Positions of bridges follow the written chain, without caps; N, C: chain ends. Non-standard residues stand in square brackets, D forms with d. Residues, ends and D or L forms follow the SMILES beside them. *: point of attachment. Octanoyl = CCCCCCCC(=O)*; Dab = NCC[C@H](N)C(=O)O

Experiments:
E. coli IH3080 [1] = assay: Agar well growth inhibition on LB plates with or without rifampin; format: cell-based, Escherichia coli; settings: well containing 4 micrograms of the compound; for Activity w. rifampin: growth inhibition around a well: LB plate containing rifampin 0.1 micrograms/ml; for Direct activity: growth inhibition around a well: LB plates
E. coli IH3080 [2] = assay: Bactericidal activity of NAB 739 methanesulfonate solutions in PBS; format: cell-based, Escherichia coli; settings: solution age fresh
E. cloacae ATCC23355 = assay: E-test MIC of antibacterial agents on Mueller-Hinton agar with or without NAB741; format: cell-based, Enterobacter cloacae
P. aeruginosa ATCC27853 = assay: as above; format: cell-based, Pseudomonas aeruginosa
E. coli IH3080 [3] = assay: as above; format: cell-based, Escherichia coli
Ac. baumannii F264 = assay: as above; format: cell-based, Acinetobacter baumannii
From the text: (§1) Five of the strains originated from ATCC. Acinetobacter baumannii F264 was purchased from Mobidiag Ltd., Helsinki, Finland. The source of E. coli IH3080 has been given in Example 2.
(§2) Sensitization factor was defined as in Example 4. NAB7061 sensitized the meropenem-resistant strain F264 to meropemen by a factor >4.

Ac. baumannii ATCC19606 = assay: as above; format: cell-based, Acinetobacter baumannii
From the text: as §1, §2

E. coli ATCC25922 = assay: as above; format: cell-based, Escherichia coli
K. pneumoniae ATCC13883 = assay: as above; format: cell-based, Klebsiella pneumoniae
[4] = system: E. coli (ATCC25922 and IH3080), K. pneumoniae ATCC13883, and E. cloacae ATCC23355; format: cell-based; settings: NAB741 4 μg/ml
Protocol: MICs were determined by using E-strips (Biodisk Ltd., Solna, Sweden) according to the manufacturer's instructions.

E. coli IH3080 (O18:K1) = assay: Sensitization to bactericidal action of guinea pig serum complement; format: cell-based, Escherichia coli
[5] = E. cloacae ATCC 23355, NAB 741 4 μg/ml
[6] = E. coli IH 3080, NAB 741 4 μg/ml
[7] = Ac. baumannii F264, NAB 741 4 μg/ml
[8] = Ac. baumannii ATCC19606, NAB 741 4 μg/ml
[9] = E. coli ATCC 25922, NAB 741 4 μg/ml
[10] = K. pneumoniae ATCC 13883, NAB 741 4 μg/ml

## CCCCCCCC(=O)N[C@H](C(=O)N[C@H](CO)C(=O)N[C@H]1CCNC(=O)[C@H]([C@@H](C)O)NC(=O)[C@H](CCN)NC(=O)[C@H](CCN)NC(=O)[C@H](CC(C)C)NC(=O)[C@@H](Cc2ccccc2)NC(=O)[C@H](CCN)NC1=O)[C@@H](C)O [NAB 739] (Octanoyl-T[dS][Dab][Dab][dF]L[Dab][Dab]T; lactam 3-C)
E. coli IH3080 [1]
  Activity w. rifampin: growth inhibition around a well: 177 square millimeters
  Direct activity: growth inhibition around a well: 133 square millimeters
E. coli IH3080 [2]; concentration 1 (unit not given)
  % survival after 2-hour treatment at 37 degrees centigrade: 21%
E. coli IH3080 [2]; concentration 2 (unit not given)
  % survival after 2-hour treatment at 37 degrees centigrade: 2%
E. coli IH3080 [2]; concentration 4 (unit not given)
  % survival after 2-hour treatment at 37 degrees centigrade: 0%

## CC(=O)N[C@H](C(=O)N[C@H](CO)C(=O)N[C@H]1CCNC(=O)[C@H]([C@@H](C)O)NC(=O)[C@H](CCN)NC(=O)[C@H](CCN)NC(=O)[C@H](CC(C)C)NC(=O)[C@@H](Cc2ccccc2)NC(=O)[C@H](CCN)NC1=O)[C@@H](C)O [NAB 741, acetyl-Thr-DSer-cy[Dab-Dab-DPhe-Leu-Dab-Dab-Thr-]] (Ac-T[dS][Dab][Dab][dF]L[Dab][Dab]T; lactam 3-C (inferred))
E. cloacae ATCC23355; E. cloacae ATCC23355
  MIC of clarithromycin in the presence of 4 μg/ml of NAB 741: 0.5 µg/mL
  MIC of rifampin in the presence of 4 μg/ml of NAB 741: 0.016 µg/mL
E. cloacae ATCC23355; [5]
  Sensitization factor to azithromycin: 16
  Sensitization factor to clarithromycin: 96
  Sensitization factor to fusidic acid: >130
  Sensitization factor to mupirocin: 190
  Sensitization factor to vancomycin: 170
E. cloacae ATCC23355; E. cloacae ATCC 23355, NAB 741 4 μg/ml, MIC ratio absence/presence
  Sensitization factor to rifampin: >2000 and 2000
E. coli IH3080 [1]
  Activity w. rifampin: growth inhibition around a well: 95 square millimeters
  Direct activity: growth inhibition around a well: 0 square millimeters
P. aeruginosa ATCC27853
  MIC of clarithromycin in the presence of 4 μg/ml of NAB 741: 64 µg/mL
  MIC of rifampin in the presence of 4 μg/ml of NAB 741: 16 µg/mL
P. aeruginosa ATCC27853; NAB 741 4 μg/ml
  Sensitization factor to clarithromycin: 2
  Sensitization factor to rifampin: 2
E. coli IH3080 [3]; E. coli IH3080
  MIC of clarithromycin in the presence of 4 μg/ml of NAB 741: 0.125 µg/mL
  MIC of rifampin in the presence of 4 μg/ml of NAB 741: 0.047 µg/mL
E. coli IH3080 [3]; [6]
  Sensitization factor to azithromycin: 32
  Sensitization factor to clarithromycin: 96
  Sensitization factor to fusidic acid: 130
  Sensitization factor to mupirocin: 64
  Sensitization factor to vancomycin: 16
E. coli IH3080 [3]; E. coli IH 3080, NAB 741 4 μg/ml, MIC ratio absence/presence
  Sensitization factor to rifampin: 250
Ac. baumannii F264; A. baumannii F264 (meropenem-resistant)
  MIC of meropenem at NAB 741 concn 4 μg/ml: 8 µg/mL
Ac. baumannii F264; Ac. baumannii F264
  MIC of clarithromycin in the presence of 4 μg/ml of NAB 741: 0.5 µg/mL
  MIC of rifampin in the presence of 4 μg/ml of NAB 741: 0.125 µg/mL
Ac. baumannii F264; [7]
  Sensitization factor to clarithromycin: 32
  Sensitization factor to rifampin: 64
Ac. baumannii ATCC19606; A. baumannii ATCC19606
  MIC of meropenem at NAB 741 concn 4 μg/ml: 0.5 µg/mL
Ac. baumannii ATCC19606; Ac. baumannii ATCC19606
  MIC of clarithromycin in the presence of 4 μg/ml of NAB 741: 0.5 µg/mL
  MIC of rifampin in the presence of 4 μg/ml of NAB 741: 0.19 µg/mL
Ac. baumannii ATCC19606; [8]
  Sensitization factor to clarithromycin: 32
  Sensitization factor to rifampin: 16
E. coli ATCC25922; E. coli ATCC25922
  MIC of clarithromycin in the presence of 4 μg/ml of NAB 741: 0.125 µg/mL
  MIC of rifampin in the presence of 4 μg/ml of NAB 741: 0.016 µg/mL
E. coli ATCC25922; [9]
  Sensitization factor to azithromycin: 24
  Sensitization factor to clarithromycin: 340
  Sensitization factor to fusidic acid: 170
  Sensitization factor to mupirocin: 128
  Sensitization factor to vancomycin: >16
E. coli ATCC25922; E. coli ATCC 25922, NAB 741 4 μg/ml, MIC ratio absence/presence
  Sensitization factor to rifampin: 750
K. pneumoniae ATCC13883; K. pneumoniae ATCC13883
  MIC of clarithromycin in the presence of 4 μg/ml of NAB 741: 1 µg/mL
  MIC of rifampin in the presence of 4 μg/ml of NAB 741: 0.5 µg/mL
K. pneumoniae ATCC13883; [10]
  Sensitization factor to azithromycin: 32
  Sensitization factor to clarithromycin: 24
  Sensitization factor to fusidic acid: >5
  Sensitization factor to mupirocin: 8
  Sensitization factor to vancomycin: >2
K. pneumoniae ATCC13883; K. pneumoniae ATCC 13883, NAB 741 4 μg/ml, MIC ratio absence/presence
  Sensitization factor to rifampin: >64
[4]
  Sensitization factor to azithromycin, range over the tested strains: 16-32
  Sensitization factor to clarithromycin, range over the tested strains: 24-340
  Sensitization factor to fusidic acid, for some of the strains: 128-170
  Sensitization factor to mupirocin, range over the tested strains: 8-192
E. coli IH3080 (O18:K1); 10% GPS, heat inactivated, NAB741 1 μg/ml
  % survival after 2-hour treatment at 37° C.: >200%
E. coli IH3080 (O18:K1); 10% GPS, heat inactivated, NAB741 2 μg/ml
  % survival after 2-hour treatment at 37° C.: >200%
E. coli IH3080 (O18:K1); 10% GPS, heat inactivated, NAB741 4 μg/ml
  % survival after 2-hour treatment at 37° C.: 125%
E. coli IH3080 (O18:K1); 10% GPS, NAB741 1 μg/ml
  % survival after 2-hour treatment at 37° C.: 5%
E. coli IH3080 (O18:K1); 10% GPS, NAB741 2 μg/ml
  % survival after 2-hour treatment at 37° C.: 7%
E. coli IH3080 (O18:K1); 10% GPS, NAB741 4 μg/ml
  % survival after 2-hour treatment at 37° C.: 0%
E. coli IH3080 (O18:K1); NAB741 2 μg/ml, 10% fresh GPS
  Factor of reduction of CFU count: approx. 100
E. coli IH3080 (O18:K1); absence of GPS or presence of heat-inactivated 10% GPS
  Reduction of CFU count by NAB741 itself: did not significantly reduce CFU count
E. coli IH3080 (O18:K1); none (PBS), NAB741 1 μg/ml
  % survival after 2-hour treatment at 37° C.: 71%
E. coli IH3080 (O18:K1); none (PBS), NAB741 2 μg/ml
  % survival after 2-hour treatment at 37° C.: 86%
E. coli IH3080 (O18:K1); none (PBS), NAB741 4 μg/ml
  % survival after 2-hour treatment at 37° C.: 58%
